These are yes or no findings as the source states them, for the method shown. Some results given as binding are weak or reduced against the parent protein; the word gives no strength.
Target: recombinant human Met (rhMet), fused to the Fc domain of human IgG (human) (UniProt P08581)
Assay: phage display selection

By UniProt entry, the sequences of proteins in these tests, tags left out. Residues count along the entry.
UniProt P08581, residues 25-932: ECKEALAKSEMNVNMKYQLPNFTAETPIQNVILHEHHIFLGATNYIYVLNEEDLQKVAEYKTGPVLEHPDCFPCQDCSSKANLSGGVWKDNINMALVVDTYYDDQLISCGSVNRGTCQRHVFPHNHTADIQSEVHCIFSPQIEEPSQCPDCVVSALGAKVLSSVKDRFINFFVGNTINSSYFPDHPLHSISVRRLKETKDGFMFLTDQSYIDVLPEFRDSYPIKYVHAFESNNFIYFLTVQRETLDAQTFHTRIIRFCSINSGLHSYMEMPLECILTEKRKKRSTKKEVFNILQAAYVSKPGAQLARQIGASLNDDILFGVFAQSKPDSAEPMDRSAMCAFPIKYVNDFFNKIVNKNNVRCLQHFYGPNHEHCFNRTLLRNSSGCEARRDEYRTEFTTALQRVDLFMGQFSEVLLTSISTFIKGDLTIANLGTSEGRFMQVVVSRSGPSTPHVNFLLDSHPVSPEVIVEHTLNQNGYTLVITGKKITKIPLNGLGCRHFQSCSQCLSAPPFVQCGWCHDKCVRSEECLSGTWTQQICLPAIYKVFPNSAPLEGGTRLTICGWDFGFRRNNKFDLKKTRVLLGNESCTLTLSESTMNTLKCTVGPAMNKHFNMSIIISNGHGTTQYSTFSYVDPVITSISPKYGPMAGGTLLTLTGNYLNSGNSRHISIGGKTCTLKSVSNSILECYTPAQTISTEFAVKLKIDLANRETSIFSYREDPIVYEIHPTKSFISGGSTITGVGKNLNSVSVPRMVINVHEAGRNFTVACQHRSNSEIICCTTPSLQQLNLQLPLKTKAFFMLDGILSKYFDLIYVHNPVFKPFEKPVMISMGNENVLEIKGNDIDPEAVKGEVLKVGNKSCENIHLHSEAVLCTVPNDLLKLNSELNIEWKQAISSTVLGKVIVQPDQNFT

Question: ASVHFPP [ASVHFPP peptide (MC40 targeting peptide), phage-displayed] was tested. Which binding did it give?
Answer: binds

Target: recombinant human Met (rhMet), fused to the Fc domain of human IgG (human) (UniProt P08581)
Assay: phage display selection on rhMet-Fc / phage ELISA

Question: For TSPVALL [TSPVALL peptide, phage-displayed], which binding is on record?
Answer: binds

Question: With IPLKVHP [IPLKVHP peptide, phage-displayed] as the binder, how does the binding read?
Answer: binds

Question: For WPRLTNM [WPRLTNM peptide, phage-displayed], which binding is on record?
Answer: binds

Question: ASVHFPP [ASVHFPP peptide (MC40 targeting peptide), phage-displayed] was tested. Which binding did it give?
Answer: binds

Question: With TATFWFQ [TATFWFQ peptide, phage-displayed] as the binder, how does the binding read?
Answer: binds
